# Experimental data taken from PubChem BioAssay AID1347076 (National Center for Advancing Translational Sciences (NCATS), 2019).
# Screen size: about 400,000 compounds; about 13,000 (3.2%) were called active. The shares of active, inactive and inconclusive entries below differ from those in the screen. Calls follow the shape of the dose curve; as a rule, active = well fitted cell-killing curve with a large enough effect; inconclusive = small, poorly fitted or top-dose-only effect, or effect the other way; inactive = flat fitted curve, though single readings scatter. A potency beside an inconclusive call is a rough fit, not a confirmed value.
# Experiment: qHTS assay for MDR1-selective chemotherapeutics: Primary screen using the drug-selected MDR subline cells KB-V1; also: nearly all actives have a fitted effect of over 60% in size
# Conditions: KB-V1 MDR cells viability, CellTiter-Glo, 72 h; activity change, negative = cytotoxicity: at 46.1 µM (top of the series)
# Procedure, shortened: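 Drug-selected KB-V1 cells, grown in DMEM lacking phenol red with 10% FBS, receive compound titrations; after three days at 37 degrees C, surviving cell ATP is quantified by CellTiter-Glo luminescence and responses normalized and curve-fitted.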
# % is scaled to controls: 0 for no effect and ±100 for the full control effect; potency is read from the fitted curve at half-maximal effect.
Compound,Potency,"activity change, negative = cytotoxicity"
CCCCCCn1cc(CN2CC(N3CCN(CCN(C)C)CC3)CS2(=O)=O)nn1 (configuration not stated),inactive,–
Cc1[nH]c2ccccc2c1-c1csc(NC(=O)CN2CCOCC2)n1,"inconclusive: 25.9 µM [cytotoxic, single point]",–
O=C(CCc1nc2ccccc2[nH]1)N1CCN(C(=O)c2ccco2)CC1,"inconclusive: 0.651 µM [rising, full curve, poor fit]",–
COc1ccccc1CN1CCC(CNC(=O)c2cnn(-c3ccc(Cl)cc3)c2C2CCN(C(=O)OC(C)(C)C)CC2)CC1,"inconclusive: 23.1 µM [cytotoxic, single point]",–
Cc1c(C(C)CCCO)oc(=O)c2c1Oc1c(C)c(C(C)C[C@H](C)O)oc(=O)c1C2 (some centres not stated),"inconclusive: 16.4 µM [rising, single point]",–
CCCc1c(C(=O)N/N=C/c2sccc2C)nnn1-c1nonc1N,inactive,–
CCOCCCNC(=O)c1c(NC(=O)Cc2coc3ccc(C)cc23)sc2c1CCC2,"inconclusive: 14.6 µM [cytotoxic, single point]",–
COc1ccc(C(=O)OC(C)C(=O)NC2CCCCC2C)cc1S(=O)(=O)N1CCOCC1 (configuration not stated),inactive,–
O=C1C=C(N2CCOCC2)c2cccc3cccc1c23,"inconclusive: 16.4 µM [cytotoxic, partial curve, poor fit]",–
Cc1ccc(N=C2NC(=O)/C(=C/c3cccn3C)S2)cc1C,"inconclusive: 29.1 µM [cytotoxic, single point]",–
Cc1ccc(Cn2ccc(NC(=O)c3nn(C)cc3[N+](=O)[O-])n2)cc1,active: 10.3 µM,–
Cc1nonc1NC(=O)CSc1nc2cc(Cl)ccc2c2c1CCCC2,inactive,–
CNC(=O)c1[nH]cnc1C(=O)Nc1cccc(Cl)c1,"inconclusive: 0.58 µM [cytotoxic, full curve]",–
O=C(N/N=C/c1ccc([N+](=O)[O-])s1)c1cccc(Br)c1,"inconclusive: 32.6 µM [cytotoxic, single point]",–
Cc1ccc(N=Nc2c(C)[nH][nH]c2=O)c(C)c1,"inconclusive: 1.16 µM [cytotoxic, full curve, poor fit]",–
CCc1ccc(-c2cc(C)no2)cc1S(=O)(=O)N1CCN(c2ccccc2OC)CC1,"inconclusive: 0.92 µM [rising, full curve]",–
Cc1ccc(F)c(NC(=O)c2c(-c3ccccc3)noc2C)c1,inactive,–
COCC1CCCCN1C(=O)c1cccc(OC2CCN(S(C)(=O)=O)CC2)c1 (configuration not stated),inactive,–
CN(C)S(=O)(=O)c1cccc(NC(=O)c2ccccc2SCC(=O)N2CCCC2)c1,"inconclusive: 18.4 µM [cytotoxic, partial curve, poor fit]",–
CS(=O)(=O)N(CC(=O)N1CCCC1)c1ccc(Cl)cc1,"inconclusive: 16.4 µM [rising, single point]",–
COc1ccc(CCN2C(=O)c3[nH]nc(-c4ccccc4O)c3C2c2ccccc2)cc1OC (configuration not stated),active: 23.1 µM,–
COC(=O)/C(=C\Nc1ccc(Cl)cc1Cl)NC(=O)c1ccc(Cl)cc1Cl,"inconclusive: 14.6 µM [cytotoxic, partial curve]",–
CCOC(=O)N1CCN(C(=O)c2oc3ccc(S(=O)(=O)N4CC(C)CC(C)C4)cc3c2C)CC1 (configuration not stated),"inconclusive: 10.3 µM [cytotoxic, partial curve, poor fit]",–

Compound,Potency,"activity change, negative = cytotoxicity"
CCN(Cc1ccccc1)C(=O)c1sc2nc3n(c(=O)c2c1C)CCCC3,"inconclusive: 18.4 µM [cytotoxic, single point]",–
CCOc1ccc(CNS(=O)(=O)c2ccc(-c3coc(C)n3)cc2)cc1OC,active: 23.1 µM,–
COc1ccc(CN(CC(=O)NCc2ccccc2)C(=O)CCC(=O)Nc2ccccn2)cc1,inactive,–
S=C(Nc1ccc(Cl)cc1)Nc1ccc2c(c1)OCCO2,inactive,–
NCCCC[C@H](N)c1nnc([C@H](CCC(=O)O)NC(=O)C2CCNCC2)o1,"inconclusive: 29.1 µM [rising, single point]",–
C=CCOc1ccc(CN(C)C(=O)c2ccc(CNS(=O)(=O)c3ccc(C)c(C)c3)cc2)cc1,"inconclusive: 16.4 µM [cytotoxic, partial curve]",–
CN(C)S(=O)(=O)N1CCCC(C(=O)c2ccc(-c3ccccc3)c(F)c2)C1 (configuration not stated),"inconclusive: 14.6 µM [cytotoxic, partial curve]",–
COc1ccccc1CNC(=O)c1cc2c(s1)-c1ccccc1OC2,"inconclusive: 29.1 µM [cytotoxic, single point]",–
O=C(O)c1ccc(N2C(=O)c3cccc4cccc(c34)C2=O)cc1,"inconclusive: 23.1 µM [rising, partial curve, poor fit]",–
CCCn1c(=O)n(C)c(=O)c2c(SCC(=O)NCc3ccco3)nc(C3CC3)nc21,"inconclusive: 14.6 µM [cytotoxic, single point]",–
O=C(Nc1ccc(Cl)cc1)c1cnn2c1NC(=C1CC1)C=C2C(F)F,"inconclusive: 23.1 µM [rising, single point]",–
COc1ccc(C2(CNC(=O)c3ccc(OC)c([N+](=O)[O-])c3)CCCCC2)cc1OC,active: 2.59 µM,–
COc1ccccc1OCCC(=O)NNC(=O)c1ccccc1F,"inconclusive: 18.4 µM [rising, single point]",–
Cc1ccc2nc(NC(=O)C3CCN(S(=O)(=O)c4cccnc4)CC3)sc2c1,"inconclusive: 18.4 µM [cytotoxic, single point]",–
COc1ccc(Cn2nnnc2C(c2cccs2)N2CCN(c3ccc([N+](=O)[O-])cc3)CC2)cc1 (configuration not stated),"inconclusive: 2.06 µM [cytotoxic, full curve]",–
O=C(CN1C(=O)C2CC=CCC2C1=O)NC1=NCCS1 (configuration not stated),inactive,–
Cc1ccc(Nc2nnc(SCC3CCCCO3)s2)cc1 (configuration not stated),"inconclusive: 29.1 µM [cytotoxic, single point]",–
CC1CCc2cc(F)ccc2N1C(=O)CSc1nnc2c(n1)[nH]c1ccccc12 (configuration not stated),active: 16.4 µM,–
CCn1c(N2CCN(S(=O)(=O)c3ccccc3)CC2)nc2ccccc21,"inconclusive: 29.1 µM [cytotoxic, single point]",–
CS(=O)(=O)NCCCNc1ccc(C(F)(F)F)cc1[N+](=O)[O-],"inconclusive: 29.1 µM [cytotoxic, single point]",–
CCC(C)c1ccc(NC(=S)Nc2ccc(OC)cc2)cc1 (configuration not stated),"inconclusive: 20.6 µM [cytotoxic, single point]",–
N#Cc1ccc(N2Cc3ccccc3C2=NC(=O)c2cccnc2Cl)cc1,active: 16.4 µM,–
CCOCCCN(Cc1ccco1)C(=O)c1cc2c(=O)[nH]c3ccc(C)cc3c2s1,"inconclusive: 29.1 µM [cytotoxic, single point]",–

# Entries of single compounds as entered above. Order of values: Potency | activity change, negative = cytotoxicity
# CCOCCCN(Cc1ccco1)C(=O)c1cc2c(=O)[nH]c3ccc(C)cc3c2s1 reads inconclusive: 29.1 µM [cytotoxic, single point] | –
# CS(=O)(=O)NCCCNc1ccc(C(F)(F)F)cc1[N+](=O)[O-] reads inconclusive: 29.1 µM [cytotoxic, single point] | –
# CCn1c(N2CCN(S(=O)(=O)c3ccccc3)CC2)nc2ccccc21 reads inconclusive: 29.1 µM [cytotoxic, single point] | –
# CC1CCc2cc(F)ccc2N1C(=O)CSc1nnc2c(n1)[nH]c1ccccc12 (configuration not stated) reads active: 16.4 µM | –

# Going on with the list.

Compound,Potency,"activity change, negative = cytotoxicity"
CCc1ccc2c(c1)-c1ccccc1S(=O)(=O)N2CC(=O)N1CCCCC1,inactive,–
O=C1c2ccccc2C(=O)N1CCn1ccnc1,"inconclusive: 10.3 µM [rising, single point]",–
CCOC(=O)CC1(C)NC(=O)c2c(C)sc(C(=O)OCC)c2N1 (configuration not stated),active: 16.4 µM,–
Cc1cc(C)nc(NS(=O)(=O)c2ccc(NC(=O)C3(c4ccc([N+](=O)[O-])cc4)CCCC3)cc2)n1,"inconclusive: 20.6 µM [rising, partial curve, poor fit]",–
O=C(NCC(=O)N1CCN(c2ccccn2)CC1)c1ccc(Br)o1,inactive,–
COc1ccc(NC(=O)C#Cc2ccccc2)cc1OC,"inconclusive: 9.2 µM [cytotoxic, partial curve, poor fit]",–
CCOC(=O)c1sc2nc[nH]c(=O)c2c1C,"inconclusive: 20.6 µM [cytotoxic, single point]",–
CC(C)(C)c1ccc(-n2ncc3c2CCCC3NC(=O)C2(C(N)=O)CC2)cc1 (configuration not stated),"inconclusive: 29.1 µM [rising, single point]",–
CNC(=S)N/N=C/c1cn(CCOc2cccc(OC)c2)c2ccccc12,"inconclusive: 20.6 µM [cytotoxic, single point]",–
Cc1ccc(Cl)cc1N1CCN(C(=O)CN2C(=O)CSc3c2c(C)nn3-c2ccccc2)CC1,"inconclusive: 25.9 µM [rising, single point]",–
CCCCOC(=O)c1ccc(NC(=O)C(=O)CC(=O)c2ccc(OC)cc2)cc1,"inconclusive: 23.1 µM [cytotoxic, single point]",–
Cc1ccc(C)c(N2CCN(C(=O)c3cc(S(=O)(=O)N4CCCCCC4)cn3C)CC2)c1,inactive,–
C#CCOCCOCCOCCNc1nc(N2CCN(C(=O)CCCCCCCCCCNC(=O)[C@H](CCCCN)n3cc(CCCC(=O)O)nn3)CC2)nc(N2CCN(C(=O)CCCCCCCCCCNC(=O)[C@H](CCCCN)n3cc(CCCC(=O)O)nn3)CC2)n1,inactive,–
CC1(C)CC(=O)/C(=C(/O)CCCN2C(=O)c3ccccc3C2=O)C(=NC(C)(C)C)C1,"inconclusive: 10.3 µM [cytotoxic, partial curve, poor fit]",–
COc1ccc(NC(=S)Nc2nc(CC(=O)Nc3ccccc3OC)cs2)cc1,active: 8.2 µM,–
COc1cccc(CNC(=O)N2CCN(S(=O)(=O)c3ccc(Cl)cc3)CC2)c1,"inconclusive: 20.6 µM [cytotoxic, single point]",–
Cc1cc(C)cc(N2CC(c3nc4ccccc4n3C)CC2=O)c1 (configuration not stated),–,inconclusive: 14.7%
CC(Nc1cc(N2CCN(S(C)(=O)=O)CC2)ccc1[N+](=O)[O-])c1ccccc1 (configuration not stated),"inconclusive: 7.31 µM [cytotoxic, partial curve]",–
CCCN(CCO)Cc1ccc(Cl)c(Cl)c1,inactive,–
COc1ccc2c(c1)CCc1c(C(=O)N3CCCC3)noc1-2,inactive,–
Cc1ccc(S(=O)(=O)N(C)c2ccc(C(=O)N3CCOCC3)cc2)cc1,"inconclusive: 16.4 µM [cytotoxic, single point]",–
